Data reported in PubChem BioAssay AID504444 (National Center for Advancing Translational Sciences (NCATS), 2011).
In all, about 360,000 compounds went through this assay and about 7,500 (2.1%) were called active. The inconclusive results got no clear call from the source; some entries with a clear call stand among them for comparison. Calls come from the whole dose curve; as a rule, active = well fitted inhibition curve with a large enough effect; inconclusive = small, poorly fitted or top-dose-only effect, or effect the other way; inactive = flat fitted curve, though single readings scatter. Where the call is inconclusive, the potency comes from a doubtful curve fit.

assay: Nrf2 qHTS screen for inhibitors; conditions: A549 ARE-Fluc reporter, luciferase luminescence, 18-24 h; activity change, negative = inhibition: at 46 µM (top of the series); note: nearly all actives have a fitted effect of over 60% in size
In short: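 A549 ARE_Fluc cells, 5000/well, 5% FBS OPTI-MEM; compounds in dose-response, 18-24 h at 37 °C/5% CO2; CellTiter-Fluor viability read (Ex 405/Em 525), then BugLite luciferase luminescence = Nrf2 activity.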
% is set by controls: 0 for no effect and ±100 for the full control effect; potency is the fitted concentration of half-maximal effect.

Row | Compound | activity change, negative = inhibition | Potency
1 | CN1c2ccccc2-c2nc3ccccc3n2C1c1ccncc1 (stereo not drawn) | inactive: -12.9% | –
2 | CC(=O)Nc1nonc1-c1nc2ccccc2n1CC1CC1 | – | inconclusive: 20.6 µM [falling, partial curve, poor fit]
3 | O=C(Nc1ccc(C(=O)N2CCC(N3CCOCC3)CC2)cc1)c1ccc(Br)o1 | inactive: 2.35% | –
4 | Cc1ccc(NC(=O)/C(C#N)=C/c2cc(C)n(-c3ccc(N4CCOCC4)c([N+](=O)[O-])c3)c2C)c(C)c1 | – | inconclusive: 4.11 µM [falling, full curve, poor fit]
5 | N/C(Cc1nc2ccccc2s1)=N\O | – | inconclusive: 32.6 µM [falling, single point]
6 | CCOc1cc(N2CCOCC2)c(OCC)cc1NC(=O)c1c(-c2ccccc2Cl)noc1C | – | inconclusive: 25.9 µM [falling, single point]
7 | O=C(NCc1ccncc1)C(=O)Nc1nc(C23CC4CC(CC(C4)C2)C3)cs1 | – | inconclusive: 29.1 µM [falling, single point]
8 | N#Cc1c(NC(=O)CSc2nc(N)cc(=O)[nH]2)sc2c1CCCCCC2 | – | active: 7.31 µM
9 | Fc1cccc(CN2CCN(C(=S)NCCc3ccccc3)CC2)c1 | – | inconclusive: 20.6 µM [activator, single point]
10 | O=S(=O)(NC1CCCCC1)c1ccc(Br)s1 | – | inconclusive: 4.61 µM [falling, single point]
11 | C=CCSc1nnc(NC(=O)c2ccc(N3CCCC3=O)cc2)s1 | – | inconclusive: 2.06 µM [activator, full curve, poor fit]
12 | Cc1nnc(SCC(=O)N/N=C/c2ccc(-c3ccc(C)c(Cl)c3)o2)s1 | – | inconclusive: 29.1 µM [falling, single point]
13 | Cc1nc2ccc(S(=O)(=O)Nc3cccc(-c4nc5cccnc5s4)c3C)cc2s1 | – | active: 23.1 µM
14 | CN(Cc1ccccc1)S(=O)(=O)c1ccc(NC(=S)NC(=O)C2CCCCC2)cc1 | – | inconclusive: 7.31 µM [falling, partial curve, poor fit]
15 | CCOC(=O)c1ccc(N2C(=O)c3n[nH]c(C)c3C2c2ccc(C(C)(C)C)cc2)cc1 (stereo not drawn) | inactive: 4.74% | –
16 | CNC(=O)C1CCC(Cn2c(=O)[nH]c3ccsc3c2=O)CC1 (stereo not drawn) | – | inconclusive: 32.6 µM [activator, single point]
17 | O=C(O)c1ccc(N/N=C2/CCSc3ccc(F)cc32)cc1 | – | inconclusive: 14.6 µM [activator, single point]
18 | Cc1ccc(NS(=O)(=O)c2ccc3c(c2)NC(=O)CCS3)cc1C | – | inconclusive: 11.6 µM [falling, partial curve]

Part of the list above in order of length of the SMILES, ascending:
Row | Compound | activity change, negative = inhibition | Potency
9 | Fc1cccc(CN2CCN(C(=S)NCCc3ccccc3)CC2)c1 | – | inconclusive: 20.6 µM [activator, single point]
11 | C=CCSc1nnc(NC(=O)c2ccc(N3CCCC3=O)cc2)s1 | – | inconclusive: 2.06 µM [activator, full curve, poor fit]
14 | CN(Cc1ccccc1)S(=O)(=O)c1ccc(NC(=S)NC(=O)C2CCCCC2)cc1 | – | inconclusive: 7.31 µM [falling, partial curve, poor fit]
